Literature values, collected in article PMC4937655 (Journal of Drug Assessment, 2013).

Details: healthy volunteers; cited from earlier work

Structure (SMILES): CC(C)c1c(C(=O)Nc2ccccc2)c(-c2ccccc2)c(-c2ccc(F)cc2)n1CC[C@@H](O)C[C@@H](O)CC(=O)O [atorvastatin]
- Increase in AUC with ticagrelor: 36%
- Increase in mean Cmax with ticagrelor: 23%
